According to the supplement of paper PMC4807443:
Structures can show the parent of a compound that is named as a salt. This is one part of the list. The numbers are fractions of the control, whatever unit the source prints. Most values lie at the level of the controls, where differences are scatter.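 MIN6, a mouse insulinoma beta-cell line, stably carries a lentiviral reporter where Pdx1 and Ins1 promoters each drive a nuclear fluorescent protein; Hoechst staining and automated imaging counted cells. Drugs were candidate hits if Ins1 promoter readout exceeded two median absolute deviations from DMSO controls while Pdx1 activity stayed near normal.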

system: MIN6; assay: % Pdx1+ Ins1+ (double-positive, mature) cells relative to DMSO control (fold of DMSO control); higher = more mature Ins1 promoter-active cells; settings: 8.5 µM; 48 h; glucose 5 mM

SMILES	% Pdx1+ Ins1+
O=c1ccc2cc(O)c(O)cc2o1 [Esculetin]	0.803
COc1cc([S+](C)[O-])ccc1-c1nc2cccnc2[nH]1 (configuration not stated) [Sulmazole]	0.741
C[C@H]1O[C@@H](O[C@H]2[C@@H](O)C[C@H](O[C@H]3[C@@H](O)C[C@H](O[C@H]4CC[C@@]5(C)[C@H](CC[C@@H]6[C@@H]5C[C@@H](O)[C@]5(C)[C@@H](C7=CC(=O)OC7)CC[C@]65O)C4)O[C@@H]3C)O[C@@H]2C)C[C@H](O)[C@@H]1O [Digoxin]	0.963
NS(=O)(=O)c1cc2c(cc1Cl)NC(C(Cl)Cl)NS2(=O)=O (configuration not stated) [Trichlormethiazide]	1.03
CN[C@@H]1[C@H](O)[C@H](NC)[C@H]2O[C@@]3(O)C(=O)C[C@@H](C)O[C@H]3O[C@@H]2[C@H]1O [Spectinomycin dihydrochloride]	1.11
Cc1onc(-c2ccccc2Cl)c1C(=O)N[C@@H]1C(=O)N2[C@@H]1SC(C)(C)[C@@H]2C(=O)O [Cloxacillin sodium salt]	1.12
N[C@@H](C(=O)N[C@@H]1C(=O)N2C(C(=O)O)=C(Cl)CC[C@H]12)c1ccccc1 [Loracarbef]	0.849
CN[C@@H]1[C@@H](O[C@H]2O[C@H](CO)[C@@H](N)[C@H](O)[C@H]2O)OC2C[C@@H](N)[C@@H](O[C@H]3[C@H](O)[C@@H](O)[C@H](N)C[C@@H]3N)OC2[C@@H]1O (some centres not stated) [Apramycin]	0.975
Cc1c(-c2ccccc2)oc2c(C(=O)OCCN3CCCCC3)cccc2c1=O [Flavoxate hydrochloride]	1.06
Cn1cnc2c1c(=O)[nH]c(=O)n2C [Theobromine]	0.979
CCN(CC)CCNC(=O)c1cc(Cl)c(N)cc1OC [Metoclopramide monohydrochloride]	1.18
CCOc1ccc2ccccc2c1C(=O)N[C@@H]1C(=O)N2[C@@H]1SC(C)(C)[C@@H]2C(=O)O [Nafcillin sodium salt monohydrate]	0.923
CN(C)C/C=C(/c1ccc(Br)cc1)c1cccnc1 [Zimelidine dihydrochloride monohydrate]	1.11
CC(C)(CO)C(O)C(=O)NCCCO (configuration not stated) [Panthenol (D)]	1.03
Cc1ccc2c(c1)c1c3n2CCNC3CCC1 (configuration not stated) [Pirlindole mesylate]	0.874
CCC[C@@H]1C[C@@H](C(=O)N[C@@H]([C@H]2O[C@H](SC)[C@H](O)[C@@H](O)[C@H]2O)[C@H](C)Cl)N(C)C1 [Clindamycin hydrochloride]	1.06
O=C(N[C@H](CO)[C@H](O)c1ccc([N+](=O)[O-])cc1)C(Cl)Cl [Chloramphenicol]	1.1

Nothing new here: an excerpt of the list.
SMILES	% Pdx1+ Ins1+
CN[C@@H]1[C@H](O)[C@H](NC)[C@H]2O[C@@]3(O)C(=O)C[C@@H](C)O[C@H]3O[C@@H]2[C@H]1O [Spectinomycin dihydrochloride]	1.11
Cc1onc(-c2ccccc2Cl)c1C(=O)N[C@@H]1C(=O)N2[C@@H]1SC(C)(C)[C@@H]2C(=O)O [Cloxacillin sodium salt]	1.12
